Data: PubChem BioAssay AID2685 (National Center for Advancing Translational Sciences (NCATS), 2010)
The other results are listed elsewhere or left out. These are further read-outs of the screen, such as a control signal, another cell line or another target. No call is given for them. Most of these compounds were active or inconclusive in the main read-out, so they are no random draw. The note in brackets gives the kind of curve behind each potency; many fits are weak.

Test: qHTS Assay for Lipid Storage Modulators in Drosophila S3 Cells;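 for cell number change: cells counted by Cell Tracker Red CMTPX staining in the red channel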
Settings: BODIPY lipid droplet fluorescence, 18-24 h; for cell number change: measured here: cell count max response, cells fed with added oleic acid
Outline: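 Drosophila S3 cells loaded with oleic acid (400 uM, as added) and compounds at several concentrations; lipid droplets imaged by 488-nm laser-scanning cytometry, 500–530 nm intensity and object ratio to cell channel. Percent activity normalized to 20 uM Triacsin C.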

[1] = measured here: cell number channel AC50, cells fed with added oleic acid
[2] = measured here: lipid fluorescence (Fed channel) AC50, cells fed with added oleic acid

## COc1cc(OC)cc(-c2cc3nc(C)c(CCC(=O)NCc4ccccc4)c(C)n3n2)c1
  cell number change: 12.1%
[1]
  AC50: 0.146 µM [rising, full curve, poor fit]
[2]
  AC50: 0.146 µM [rising, full curve, poor fit]

## CCOC(=O)CC(=O)CSc1nc2sc(C)cc2c(=O)n1Cc1ccco1
  cell number change: -5.31%
[2]
  AC50: 6.51 µM [rising, partial curve]

## CCOC(=O)N1CCN(c2ccc([N+](=O)[O-])cc2F)CC1C (stereo unspecified)
  cell number change: -38%
[1]
  AC50: 0.291 µM [falling, full curve, poor fit]

## COCc1cc(C)nc2sc(C(=O)Nc3ccccc3OC)c(N)c12
  cell number change: -20.1%
[2]
  AC50: 29.1 µM [falling, single point]

## CC#CCCc1nc2ccccc2c(=O)n1N
  cell number change: 11.4%
[2]
  AC50: 0.259 µM [rising, full curve, poor fit]

## Cc1ccc(C(=O)n2ncn(C)c2=S)cc1
[2]
  AC50: 29.1 µM [falling, partial curve]

## O=C(Cc1ncc(C(F)(F)F)cc1Cl)NCc1ccco1
  cell number change: 27.2%

## O=[N+]([O-])c1ccc(S(=O)(=O)N2CCN(Cc3c[nH]c4ccccc34)CC2)cc1
  cell number change: 30.3%
[1]
  AC50: 4.61 µM [rising, full curve, poor fit]
[2]
  AC50: 20.6 µM [rising, single point]

## COc1ccc(-c2csc(Nc3ccc(O)cc3)n2)cc1
  cell number change: -16.4%

## CCOC(=O)c1c(NC(=O)c2ccoc2C)sc2c1CCC2
  cell number change: -14.6%
[2]
  AC50: 0.411 µM [rising, full curve]

## CCOC(=O)Cn1c(=NC(=O)CN2C(=O)CCC2=O)sc2cc(S(N)(=O)=O)ccc21
  cell number change: 5.79%
[2]
  AC50: 32.6 µM [falling, single point]

## CCOC(=O)[C@H]1[C@H]2COc3ccc(C)cc3[C@@H]2N2C(=O)CN(Cc3ccc(C)cc3)C(=O)[C@@]12C
  cell number change: -0.339%

## O=C(/C=C/c1cccc(C(F)(F)F)c1)Nc1cccc(C(F)(F)F)c1
[2]
  AC50: 14.6 µM [falling, partial curve, poor fit]

## COc1cccc(CN2CCNC(=O)C2CC(=O)N(C)C2CCCCC2)c1 (stereo unspecified)
  cell number change: 9.54%
[2]
  AC50: 29.1 µM [rising, single point]

## Cn1nnc2cc(C(=O)Nc3ccc(Cl)cc3)ccc21
  cell number change: -3.58%
[2]
  AC50: 0.731 µM [falling, full curve, poor fit]

## COCc1nnc(NC(=O)CCS(=O)(=O)c2ccccc2)s1
  cell number change: 15.4%
[2]
  AC50: 20.6 µM [falling, single point]

## O=C(Nc1cccnc1)c1ccc2nc(-c3ccccc3)c(-c3ccccc3)nc2c1
  cell number change: 17.7%
[2]
  AC50: 0.116 µM [falling, full curve, poor fit]

## COc1ccc(NS(=O)(=O)c2ccc(C)c(C(=O)NCC(c3cccs3)N3CCOCC3)c2)cc1 (stereo unspecified)
  cell number change: 63%
[1]
  AC50: 2.06 µM [rising, full curve]

## C=CCNC(=O)COC(=O)c1c2c(nc3ccccc13)CCC2
  cell number change: -22.4%

## CCN(CC)c1nc2n(c(=S)n1)CCS2
  cell number change: 17.4%
[1]
  AC50: 0.259 µM [rising, full curve]

## CC(C)(C)OC(=O)CNC(=O)c1nc[nH]c1C(=O)N1CCN(c2ccccc2)CC1
  cell number change: 23.4%
[1]
  AC50: 0.103 µM [rising, full curve, poor fit]

## O=C(c1cn[nH]c1)c1cc(F)ccc1O
  cell number change: -0.458%
[2]
  AC50: 5.8 µM [falling, partial curve]

## Cn1c(-c2ccc3c(c2)OCO3)cnc1NCc1cccc(Cl)c1
  cell number change: -0.417%
[2]
  AC50: 0.517 µM [rising, single point]

## Cc1ccc(C(=O)N/C(=C\c2cccc([N+](=O)[O-])c2)C(=O)NCc2ccncc2)cc1
  cell number change: -7.26%
[2]
  AC50: 0.92 µM [rising, full curve, poor fit]

## COc1ccc(OCC(=O)Nc2ccc3c(c2)nc(CCNC(C)=O)n3C)cc1
  cell number change: 9.01%

## Cc1c(Cl)cccc1NC(=O)C1=COCCO1
[1]
  AC50: 4.61 µM [rising, single point]

## CCN1C(=O)[C@H]2[C@@H](c3ccc(-c4ccc(F)cc4)cc3)N3CCCC[C@@]3(C(=O)OC)[C@H]2C1=O
  cell number change: -36.3%
[1]
  AC50: 18.4 µM [falling, partial curve, poor fit]
[2]
  AC50: 29.1 µM [falling, single point]

## CCN(CC(=O)Nc1c(C(=O)OC)[nH]c2ccc(C)cc12)c1ccc2c(c1)OCO2
  cell number change: -31.1%
[1]
  AC50: 18.4 µM [falling, partial curve, poor fit]
[2]
  AC50: 32.6 µM [falling, partial curve, poor fit]

## CCOC(=O)c1c(-c2ccc(C)o2)csc1NC(=O)CSc1nncs1
  cell number change: -37.1%
[1]
  AC50: 2.91 µM [falling, partial curve, poor fit]
[2]
  AC50: 14.6 µM [falling, partial curve, poor fit]

## CCN(CC)CCn1c(N)cc(=O)[nH]c1=O
  cell number change: 7.57%

## COc1ccc(C2C(C#N)=C(N)N3C(=C2C#N)Sc2ccccc23)cc1 (stereo unspecified)
  cell number change: 17.1%
[2]
  AC50: 1.3 µM [rising, full curve]

## CCOC(=O)C(C)n1cnc2c(cnn2-c2ccc(Cl)cc2)c1=O (stereo unspecified)
[1]
  AC50: 0.92 µM [rising, partial curve]
[2]
  AC50: 0.13 µM [rising, full curve, poor fit]

## CC(C)(C)c1ccc(CN(Cc2ccco2)Cc2nnnn2C2CCCC2)cc1
[1]
  AC50: 3.66 µM [rising, single point]
[2]
  AC50: 23.1 µM [rising, single point]

## CC(NC(=O)C1CCCN(S(=O)(=O)c2cnc[nH]2)C1)c1ccccc1 (stereo unspecified)
  cell number change: 18.7%

## Clc1ccc(OCc2nn3c(C4CCCCC4)nnc3s2)cc1
[2]
  AC50: 6.51 µM [rising, single point]

## CCOC(=O)N1CCC(NC(=O)C2CCN(S(=O)(=O)N3CCC(C)CC3)CC2)CC1
  cell number change: 20.3%
[2]
  AC50: 14.6 µM [rising, partial curve, poor fit]

## COc1ccc(CCC(=O)NCC(c2ccco2)N2CCc3ccccc32)cc1 (stereo unspecified)
[1]
  AC50: 6.51 µM [rising, single point]
[2]
  AC50: 6.51 µM [rising, single point]

## CC(C)c1ccc(OCC(O)CN2CCN(c3ccccc3)CC2)cc1 (stereo unspecified)
  cell number change: -74.7%
[1]
  AC50: 29.1 µM [falling, single point]
[2]
  AC50: 29.1 µM [falling, single point]
